Data source: PubChem BioAssay AID1259424 (University of Nebraska Medical Center, 2018)
Here is one part, drawn at random, of about 14,000 reagents. 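Higher correlation or smaller distance means closer resemblance to KSR1 loss; control wells, including KSR1 knockdowns, recur on many plates.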 Further read-outs or replicates are left out here. The record does not give: the time to read-out.

Purpose: 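Rank knockdowns across the genome by resemblance to the KSR1 depletion profile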 (primary screen)
System: human HCT116 colon cancer cells
Reagent: siRNA pool against human genes, 50 nM
Detection: 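Log2 levels of six mRNAs (branched-DNA multiplex), adjusted by two reference genes and the non-targeting median, then scored against the average KSR1 knockdown pattern as Pearson r and euclidean distance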
Scale: mean correlation with KSR1 profile: higher = expression change more like KSR1 knockdown

| Gene | mean correlation with KSR1 profile |
| --- | --- |
| CHN2 (chimerin 2) | 0.0228 |
| ZNF460 (zinc finger protein 460) | -0.32 |
| CNN1 (calponin 1) | -0.142 |
| USP5 (ubiquitin specific peptidase 5) | -0.384 |
| APBB3 (amyloid beta precursor protein binding family B member 3) | -0.305 |
| KLF14 (KLF transcription factor 14) | 0.0428 |
| F10 (coagulation factor X) | -0.264 |
| CYP4B1 (cytochrome P450 family 4 subfamily B member 1) | -0.382 |
| PCID2 (PCI domain containing 2) | -0.34 |
| CIDEB (cell death inducing DFFA like effector b) | 0.0146 |
| NAT10 (N-acetyltransferase 10) | -0.337 |
| KLHDC8A (kelch domain containing 8A) | -0.885 |
| P3H3 (prolyl 3-hydroxylase 3) | 0.017 |
| FBXO24 (F-box protein 24) | -0.474 |
| FAM111A (FAM111 trypsin like peptidase A) | -0.72 |
| RAB20 (RAB20, member RAS oncogene family) | 0.15 |
| CLEC7A (C-type lectin domain containing 7A) | -0.209 |
| CYP4A11 (cytochrome P450 family 4 subfamily A member 11) | 0.635 |
| RGS9 (regulator of G protein signaling 9) | 0.705 |
| GUCY1B1 (guanylate cyclase 1 soluble subunit beta 1) | 0.457 |
| STAG3L4 (STAG3 cohesin complex component like 4 (pseudogene)) | 0.735 |
| KLHL14 (kelch like family member 14) | 0.266 |
| UQCC1 (ubiquinol-cytochrome c reductase complex assembly factor 1) | -0.284 |
| POLE3 (DNA polymerase epsilon 3, accessory subunit) | 0.316 |
| CYB5R1 (cytochrome b5 reductase 1) | -0.814 |
| FAM13A (family with sequence similarity 13 member A) | -0.00875 |
| LSM7 | -0.225 |
| PLEKHM1 (pleckstrin homology and RUN domain containing M1) | -0.0744 |
| GPX4 (glutathione peroxidase 4) | 0.231 |
| CCDC88A (coiled-coil and HOOK domain protein 88A) | 0.637 |
| GJA10 (gap junction protein alpha 10) | 0.69 |
| RCC1 (regulator of chromosome condensation 1) | -0.0868 |
| ALOX15B (arachidonate 15-lipoxygenase type B) | 0.512 |
| RPL18A (ribosomal protein L18a) | 0.433 |
| RXRA (retinoid X receptor alpha) | 0.564 |
| N4BP1 (NEDD4 binding protein 1) | -0.318 |
| PDIA6 (protein disulfide isomerase family A member 6) | 0.0727 |
| TBC1D30 (TBC1 domain family member 30) | -0.437 |
| RCOR3 (REST corepressor 3) | -0.242 |
| VGF (VGF nerve growth factor inducible) | -0.00163 |
| AKR1C1 (aldo-keto reductase family 1 member C1) | -0.471 |
| NRTN (neurturin) | -0.0505 |
| PSPHP1 (phosphoserine phosphatase pseudogene 1) | -0.323 |
| HNRNPK (heterogeneous nuclear ribonucleoprotein K) | -0.0934 |
| PANK1 (pantothenate kinase 1) | 0.501 |
| PDGFB (platelet derived growth factor subunit B) | -0.592 |
| ARID1B (AT-rich interaction domain 1B) | -0.807 |
| TBCD (tubulin folding cofactor D) | -0.413 |
| MAPKAPK5-AS1 (MAPKAPK5 antisense RNA 1) | 0.31 |
| EYA1 (EYA transcriptional coactivator and phosphatase 1) | -0.241 |
